Measurements as given in the supplement of paper PMC4604168 (melanoma cell lines).
The list shows a part of the results. Many values rest on one well or one pass, so single values are uncertain.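 The apoptosis fraction was the count of cleaved-PARP antibody-stained nuclei relative to all DNA-stained nuclei, imaged in 1,536-well plates. Screening doses were set so most cells survived, and baseline and induced cleaved-PARP levels vary greatly across cell lines.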

Key:
Experiment in all cases: cleaved PARP positive nuclei fraction relative to DMSO control; melanoma cells; higher = more apoptosis
Settings in all cases: library dose: low library concentration; 72 h
CBRC034 = test system: CBRC034 (line from a melanoma biopsy)
COLO792 = test system: COLO792
COLO800 = test system: COLO800
COLO829 = test system: COLO829
G361 = test system: G361
IPC-298 = test system: IPC-298
IST-MEL1 = test system: IST-MEL1
LB2518-MEL = test system: LB2518-MEL
LOXIMVI = test system: LOXIMVI
MZ2-MEL = test system: MZ2-MEL
MeWo = test system: MeWo
RPMI7951 = test system: RPMI7951
RVH-421 = test system: RVH-421
SkMel28 = test system: SkMel28
SkMel30 = test system: SkMel30
SkMel5 = test system: SkMel5
UACC257 = test system: UACC257
UACC62 = test system: UACC62

SMILES | cleaved PARP positive nuclei fraction (CBRC034) [%] | cleaved PARP positive nuclei fraction (COLO792) [%] | cleaved PARP positive nuclei fraction (COLO800) [%] | cleaved PARP positive nuclei fraction (COLO829) [%] | cleaved PARP positive nuclei fraction (G361) [%] | cleaved PARP positive nuclei fraction (IPC-298) [%] | cleaved PARP positive nuclei fraction (IST-MEL1) [%] | cleaved PARP positive nuclei fraction (LB2518-MEL) [%] | cleaved PARP positive nuclei fraction (LOXIMVI) [%] | cleaved PARP positive nuclei fraction (MZ2-MEL) [%] | cleaved PARP positive nuclei fraction (MeWo) [%] | cleaved PARP positive nuclei fraction (RPMI7951) [%] | cleaved PARP positive nuclei fraction (RVH-421) [%] | cleaved PARP positive nuclei fraction (SkMel28) [%] | cleaved PARP positive nuclei fraction (SkMel30) [%] | cleaved PARP positive nuclei fraction (SkMel5) [%] | cleaved PARP positive nuclei fraction (UACC257) [%] | cleaved PARP positive nuclei fraction (UACC62) [%]
COc1cc2ncnc(Nc3ccc(Oc4ccccc4)cc3)c2cc1OC + O=c1cc(-c2cccc3c2Sc2ccccc2S3)oc(N2CCOCC2)c1 [KU55933] (first compound 2 µM, partner dose 1 µM) | 78.3 | 107 | 111 | 69.5 | 44.2 | 62.3 | 172 | 38.9 | 130 | 127 | 111 | 38.8 | 64.1 | 137 | 35.3 | 110 | 193 | 32.8
NCC(=O)Nc1ccc(-n2nc(C(F)(F)F)cc2-c2ccc3c(ccc4ccccc43)c2)cc1 + Oc1nc(-c2ccc(C(F)(F)F)cc2)nc2c1CSCC2 [XAV939] (first compound 1 µM, partner dose 2 µM) | 89.8 | 74.5 | 67.5 | 63.4 | 40 | 132 | 118 | 165 | 30.5 | 88 | 292 | 92.8 | 55.6 | 279 | 42.1 | 128 | 105 | 626
COc1ccc(-c2ccc3c(N4CCOCC4)nc(N4C[C@@H](C)O[C@@H](C)C4)nc3n2)cc1CO + COc1cc(N2CCC(N3CCN(C)CC3)CC2)ccc1Nc1ncc(Cl)c(Nc2ccccc2S(=O)(=O)C(C)C)n1 [NVP-TAE684] (first compound 0.02 µM, partner dose 0.08 µM) | 131 | 152 | 106 | 81.4 | 153 | 79.8 | 90.2 | 88.9 | 30 | 85 | 64.7 | 96.6 | 86 | 158 | 17.1 | 34.7 | 153 | 269
CN(NC(=O)CC(=O)NN(C)C(=S)c1ccccc1)C(=S)c1ccccc1 + COc1cc2ncnc(Nc3ccc(Oc4ccccc4)cc3)c2cc1OC [SrcI1] (first compound 0.006 µM, partner dose 2 µM) | 117 | 188 | 237 | 144 | 126 | 105 | 44.8 | 286 | 64.4 | 83.1 | 177 | 77.2 | 89.7 | 178 | 92.1 | 268 | 244 | 112
COc1ccc2c(c1)CCC1C2CCC2(C)C(NCCCCCCN3C(=O)C=CC3=O)CCC12 (configuration not stated) + CC(C)CCN1c2nc(Nc3cc(F)c(O)c(F)c3)ncc2N(C)C(=O)C1C [BID1870] (first compound 0.4 µM, partner dose 0.2 µM) | 112 | 135 | 155 | 46.1 | 160 | 263 | 158 | 195 | 219 | 138 | 52.4 | 98.3 | 87.5 | 76.1 | 53.2 | 61.1 | 131 | 301
N#Cc1c(O)c2c(-c3ccc(-c4ccccc4O)cc3)csc2[nH]c1=O + O=c1cc(-c2cccc3c2Sc2ccccc2S3)oc(N2CCOCC2)c1 [KU55933] (first compound 2 µM, partner dose 1 µM) | 64.9 | 77 | 159 | 95.4 | 80.2 | 35.9 | 88 | 78.2 | 51.7 | 128 | 163 | 77 | 103 | 160 | 1270 | 42 | 102 | 269
N#Cc1c(O)c2c(-c3ccc(-c4ccccc4O)cc3)csc2[nH]c1=O + O=C1NC(=O)/C(=C/c2ccc(-c3ccc(F)cc3O)o2)S1 [AS252424] (first compound 2 µM, partner dose 1 µM) | 123 | 230 | 50.6 | 177 | 99.6 | 40.1 | 68.9 | 95 | 44.3 | 118 | 54.1 | 39 | 33.4 | 113 | 39.3 | 59.3 | 101 | 283
O=C1NC(=O)/C(=C/c2ccc(-c3ccc(F)cc3O)o2)S1 + CC(C)CCN1c2nc(Nc3cc(F)c(O)c(F)c3)ncc2N(C)C(=O)C1C [BID1870] (first compound 1 µM, partner dose 0.2 µM) | 67.6 | 39.6 | 103 | 86.8 | 130 | 79.3 | 55.9 | 79.8 | 27.9 | 76.6 | 347 | 39.5 | 125 | 16.4 | 19 | 40.6 | 6.21 | 59.4
COc1ccc(-c2ccc3c(N4CCOCC4)nc(N4C[C@@H](C)O[C@@H](C)C4)nc3n2)cc1CO + CCCCCCCCCCCC1=C(O)C(=O)C=C(O)C1=O [Embelin] (first compound 0.02 µM, partner dose 1.2 µM) | 46.3 | 69.9 | 87.9 | 90.2 | 35.3 | 92.5 | 56.6 | 162 | 83.6 | 62.1 | 54.8 | 50 | 108 | 61.2 | 545 | 179 | 89.2 | 83.8
COC(=O)c1sccc1S(=O)(=O)Nc1ccc(Nc2ccccc2)cc1OC + CC(C)CCN1c2nc(Nc3cc(F)c(O)c(F)c3)ncc2N(C)C(=O)C1C [BID1870] (first compound 1 µM, partner dose 0.2 µM) | 126 | 95.9 | 73.5 | 121 | 203 | 184 | 488 | 83.4 | 58 | 23.4 | 58.1 | 146 | 32.3 | 177 | 40.5 | 92.4 | 119 | 206
O=C(Nc1ccccc1)c1cc([N+](=O)[O-])ccc1Cl + c1cc(-c2cnn3cc(-c4ccc(OCCN5CCCCC5)cc4)cnc23)ccn1 [Dorsomorphin] (first compound 2 µM, partner dose 0.4 µM) | 84.9 | 119 | 133 | 140 | 124 | 133 | 114 | 83.3 | 73.7 | 149 | 60.4 | 187 | 41.4 | 108 | 24.5 | 94 | 80.4 | 43.4
Oc1nc(-c2ccc(C(F)(F)F)cc2)nc2c1CSCC2 + Cn1cc(/C=C2\C(=O)Nc3cccnc32)c2ccccc21 [GW441756] (first compound 2 µM, partner dose 0.4 µM) | 94.3 | 240 | 59.9 | 95 | 74 | 62.2 | 83.2 | 91.5 | 102 | 104 | 179 | 81.2 | 80.8 | 140 | 34.4 | 63.9 | 51.3 | 109
COc1ccc(COc2ccc(Cc3cnc(N)nc3N)cc2OC)cc1 + CCCCCCCCCCCC1=C(O)C(=O)C=C(O)C1=O [Embelin] (first compound 1 µM, partner dose 1.2 µM) | 141 | 31.5 | 137 | 130 | 73.5 | 158 | 119 | 256 | 116 | 87.5 | 47.7 | 82.8 | 57.2 | 109 | 10.3 | 124 | 78.7 | 54.7
O=C(O)C(=O)Nc1sc2c(c1C(=O)O)CCNC2 + Cc1cc([N+](=O)[O-])ccc1NS(=O)(=O)c1cc(Cl)ccc1Cl [FH535] (first compound 1.66667 µM, partner dose 1 µM) | 387 | 107 | 56.2 | 224 | 41.9 | 74.7 | 92.2 | 232 | 73.7 | 43.3 | 56.6 | 44 | 167 | 252 | 17 | 44.2 | 30.1 | 102
O=C(Nc1ccccc1)c1cc([N+](=O)[O-])ccc1Cl + CCCCCCCCCCCC1=C(O)C(=O)C=C(O)C1=O [Embelin] (first compound 2 µM, partner dose 1.2 µM) | 70.2 | 127 | 63.6 | 53 | 137 | 53.1 | 100 | 88.3 | 50 | 304 | 49 | 33.9 | 45.6 | 125 | 91.2 | 58.8 | 101 | 84.9
O=C(O)c1ccc(-c2c[nH]c3ncc(-c4ccccc4)cc23)cc1C1CCCC1 + COc1ccc(-c2ccc3c(N4CCOCC4)nc(N4C[C@@H](C)O[C@@H](C)C4)nc3n2)cc1CO [KU0063794] (first compound 0.16 µM, partner dose 0.02 µM) | 48.4 | 81.7 | 836 | 130 | 90.2 | 43.9 | 97.5 | 84.1 | 42.9 | 124 | 125 | 47.5 | 112 | 155 | 94.4 | 76.3 | 256 | 58.9
CN(C)S(=O)(=O)c1ccc2c(c1)/C(=C/c1cc3c([nH]1)CCCC3)C(=O)N2 + N#Cc1c(O)c2c(-c3ccc(-c4ccccc4O)cc3)csc2[nH]c1=O [A769662] (first compound 0.4 µM, partner dose 2 µM) | 180 | 137 | 93.3 | 111 | 60.8 | 81.3 | 177 | 58 | 117 | 124 | 119 | 80.9 | 75.2 | 54.9 | 38.3 | 82.2 | 70.8 | 75.1
Oc1nc(-c2ccc(C(F)(F)F)cc2)nc2c1CSCC2 + COc1cc(N2CCC(N3CCN(C)CC3)CC2)ccc1Nc1ncc(Cl)c(Nc2ccccc2S(=O)(=O)C(C)C)n1 [NVP-TAE684] (first compound 2 µM, partner dose 0.08 µM) | 93.1 | 42.4 | 91.2 | 185 | 63.2 | 112 | 85.8 | 245 | 50.8 | 90.2 | 106 | 94.6 | 159 | 143 | 18.7 | 151 | 66.7 | 156
CCN(CC)CCCCNc1ncc2cc(-c3cc(OC)cc(OC)c3)c(NC(=O)NC(C)(C)C)nc2n1 + COc1cc2ncnc(Nc3ccc(Oc4ccccc4)cc3)c2cc1OC [SrcI1] (first compound 0.1 µM, partner dose 2 µM) | 71.4 | 119 | 94.2 | 77.6 | 104 | 131 | 123 | 165 | 70.6 | 134 | 118 | 79.3 | 79.2 | 123 | 257 | 55.4 | 17.2 | 77.3

2 entries from above, reformatted.
SMILES,cleaved PARP positive nuclei fraction (CBRC034) [%],cleaved PARP positive nuclei fraction (COLO792) [%],cleaved PARP positive nuclei fraction (COLO800) [%],cleaved PARP positive nuclei fraction (COLO829) [%],cleaved PARP positive nuclei fraction (G361) [%],cleaved PARP positive nuclei fraction (IPC-298) [%],cleaved PARP positive nuclei fraction (IST-MEL1) [%],cleaved PARP positive nuclei fraction (LB2518-MEL) [%],cleaved PARP positive nuclei fraction (LOXIMVI) [%],cleaved PARP positive nuclei fraction (MZ2-MEL) [%],cleaved PARP positive nuclei fraction (MeWo) [%],cleaved PARP positive nuclei fraction (RPMI7951) [%],cleaved PARP positive nuclei fraction (RVH-421) [%],cleaved PARP positive nuclei fraction (SkMel28) [%],cleaved PARP positive nuclei fraction (SkMel30) [%],cleaved PARP positive nuclei fraction (SkMel5) [%],cleaved PARP positive nuclei fraction (UACC257) [%],cleaved PARP positive nuclei fraction (UACC62) [%]
"COc1ccc(-c2ccc3c(N4CCOCC4)nc(N4C[C@@H](C)O[C@@H](C)C4)nc3n2)cc1CO + COc1cc(N2CCC(N3CCN(C)CC3)CC2)ccc1Nc1ncc(Cl)c(Nc2ccccc2S(=O)(=O)C(C)C)n1 [NVP-TAE684] (first compound 0.02 µM, partner dose 0.08 µM)",131,152,106,81.4,153,79.8,90.2,88.9,30,85,64.7,96.6,86,158,17.1,34.7,153,269
"COc1ccc2c(c1)CCC1C2CCC2(C)C(NCCCCCCN3C(=O)C=CC3=O)CCC12 (configuration not stated) + CC(C)CCN1c2nc(Nc3cc(F)c(O)c(F)c3)ncc2N(C)C(=O)C1C [BID1870] (first compound 0.4 µM, partner dose 0.2 µM)",112,135,155,46.1,160,263,158,195,219,138,52.4,98.3,87.5,76.1,53.2,61.1,131,301
